According to publication PMC6451128:
For at least one entry, the source does not settle the construct or the ends of the probe. For part of these data: A weaker result is weaker than the reference pair of the same experiment. For part of these data: Whether high values mean tight binding is not given here for every scale.

Chains of the proteins cited; added tags and fusions are not shown. Residues count along the entry.
UniProt Q9H611, 206-620: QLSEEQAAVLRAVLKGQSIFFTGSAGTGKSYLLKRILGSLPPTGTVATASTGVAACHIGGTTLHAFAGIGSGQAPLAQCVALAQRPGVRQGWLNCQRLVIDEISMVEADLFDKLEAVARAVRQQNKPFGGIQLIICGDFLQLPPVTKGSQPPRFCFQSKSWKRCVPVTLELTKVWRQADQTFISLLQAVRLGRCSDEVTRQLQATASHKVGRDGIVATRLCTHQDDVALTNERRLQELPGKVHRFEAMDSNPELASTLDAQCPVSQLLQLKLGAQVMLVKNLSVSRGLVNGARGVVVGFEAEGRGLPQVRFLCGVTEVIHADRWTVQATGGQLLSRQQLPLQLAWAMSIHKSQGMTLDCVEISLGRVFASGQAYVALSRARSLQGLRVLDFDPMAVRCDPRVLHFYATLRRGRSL
UniProt Q9H611, 206-620 H555A: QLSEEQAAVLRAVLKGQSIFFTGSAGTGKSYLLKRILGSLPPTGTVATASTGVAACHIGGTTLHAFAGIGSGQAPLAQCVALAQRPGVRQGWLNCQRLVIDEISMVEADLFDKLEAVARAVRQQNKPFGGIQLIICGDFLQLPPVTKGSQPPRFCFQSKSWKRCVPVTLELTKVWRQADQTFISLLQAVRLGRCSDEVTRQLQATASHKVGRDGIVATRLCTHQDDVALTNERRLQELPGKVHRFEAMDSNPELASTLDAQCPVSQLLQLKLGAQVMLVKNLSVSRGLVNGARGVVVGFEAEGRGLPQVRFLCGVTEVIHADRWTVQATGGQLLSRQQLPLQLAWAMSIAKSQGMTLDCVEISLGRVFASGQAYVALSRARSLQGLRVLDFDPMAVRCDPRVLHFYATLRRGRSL
UniProt Q9H611, 206-620 H269A: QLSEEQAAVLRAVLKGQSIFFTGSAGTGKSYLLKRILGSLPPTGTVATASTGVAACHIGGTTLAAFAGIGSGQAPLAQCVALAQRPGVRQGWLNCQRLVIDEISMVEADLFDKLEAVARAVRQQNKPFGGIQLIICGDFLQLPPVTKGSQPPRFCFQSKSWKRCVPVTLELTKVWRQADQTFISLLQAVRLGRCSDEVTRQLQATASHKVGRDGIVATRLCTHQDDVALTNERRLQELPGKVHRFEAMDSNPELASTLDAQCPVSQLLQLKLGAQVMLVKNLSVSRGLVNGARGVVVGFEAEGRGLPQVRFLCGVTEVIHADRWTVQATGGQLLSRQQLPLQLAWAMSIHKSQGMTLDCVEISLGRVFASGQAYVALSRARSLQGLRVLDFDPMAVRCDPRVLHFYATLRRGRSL

Key:
Assay in all cases: EMSA
[1] = biological target: hPIF1HD wild-type (human) (UniProt Q9H611); conditions: minimal binding under G4 assay conditions; 20 mM HEPES-NaOH pH 7.5 (Results say pH 7.2), 135 mM NaCl, 5% glycerol, 1 mM DTT, 1 mg/ml BSA, 20 min at 20 C; 0.4 nM T(35); G4 assay: 0.1 nM G4 DNA; recombinant protein; residues 206-620; protein details: His tag removed by thrombin, GSRM left at N-term; label: 32P; single-stranded DNA
hPIF1HD H555A (human) = hPIF1HD H555A (human) (UniProt Q9H611); conditions: no nucleotide; 20 mM HEPES-NaOH pH 7.5 (Results say pH 7.2), 135 mM NaCl, 5% glycerol, 1 mM DTT, 1 mg/ml BSA, 20 min at 20 C; 0.4 nM T(35); G4 assay: 0.1 nM G4 DNA; recombinant protein; residues 206-620; protein details: His tag removed, GSRM left; label: 5' 32P (PNK); single-stranded DNA
hPIF1HD H269A (human) = hPIF1HD H269A (human) (UniProt Q9H611); conditions: no nucleotide; 20 mM HEPES-NaOH pH 7.5 (Results say pH 7.2), 135 mM NaCl, 5% glycerol, 1 mM DTT, 1 mg/ml BSA, 20 min at 20 C; 0.4 nM T(35); G4 assay: 0.1 nM G4 DNA; recombinant protein; residues 206-620; protein details: His tag removed, GSRM left; label: 5' 32P (PNK); single-stranded DNA

| Sequence | binding result [1] | binding signal (fold decrease in affinity vs WT) (hPIF1HD H555A (human)) | binding signal (fold decrease in affinity vs WT) (hPIF1HD H269A (human)) |
| --- | --- | --- | --- |
| TTTTTTTTTTGGGGTTTTGGGG [single-stranded precursor of G4 DNA] | binds more weakly | – | – |
| TTTTTTTTTTTTTTTTTTTTTTTTTTTTTTTTTTT [poly-T(35)] | – | > 50 | > 50 |
